Results deposited as PubChem BioAssay AID720505 (Drosophila RNAi Screening Center, 2013).
The screen tested about 20,000 reagents; this is a random part of those that have a named target and a result. In the full data, about 2,100 (10%) are marked active. 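Raw plate signals without normalisation; calls rest on control-based scores that were not deposited; replicate 2 separates called from uncalled poorly.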 A plus sign joins genes that one reagent is predicted to hit. The record does not give: the amount of reagent, the time to read-out.

- Purpose: 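Genes needed for store-operated calcium entry in fly cells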 (primary screen)
- Cells: Drosophila S2R+ cells
- Knock-down reagent: long dsRNA against Drosophila genes
- Treatment: thapsigargin (2 µM) in calcium-free buffer to empty internal stores, then 2 mM calcium added back
- Read-out: 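Stores emptied by 2 µM thapsigargin without calcium, then 2 mM calcium re-added; fluo-4 fluorescence followed by FLIPR in 384-well plates, per-well averaged endpoint, raw; two screen passes, some wells retested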
- Scale: calcium signal and retest calcium signal: higher = more calcium entry after store depletion
- Hit rule: 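Knock-downs counted as hits when calcium entry dropped relative to STIM1 positive and Rho1 negative controls present on each plate; roughly 1500 genes called, with reductions of differing size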
- Calls: active = called as lowering calcium entry; inactive = not called

no.	gene	amplicon	calcium signal, replicate 1	calcium signal, replicate 2	retest calcium signal, replicate 1	retest calcium signal, replicate 2	call
1	CG15127	DRSC05802	95	89			inactive
2	CG15127	DRSC06549	153	159			inactive
3	CG17580	DRSC06683	99.6	164			inactive
4	CG15212	DRSC10212	109	87.1			inactive
5	key (kenny)	DRSC04285	66.3	175			active
6	Pdcd4 (Programmed cell death 4)	DRSC19360	107	95.3			inactive
7	DptB (Diptericin B)	DRSC06001	128	137			inactive
8	hfp (half pint)	DRSC08731	54.4	81.8			active
9	hfp (half pint)	DRSC08732	97.8	65.6			inactive
10	hfp (half pint)	DRSC22408	99.4	196			inactive
11	CG15429	DRSC00444	65.3	101			active
12	Vps36 (Vacuolar protein sorting 36)	DRSC09785	115	115			inactive
13	Tmtc1 (Transmembrane O-mannosyltransferase targeting cadherins 1)	DRSC00147	82.5	132			inactive
14	Tmtc1 (Transmembrane O-mannosyltransferase targeting cadherins 1)	DRSC00151	115	129			inactive
15	Tmtc1 (Transmembrane O-mannosyltransferase targeting cadherins 1)	DRSC00314	192	154			inactive
16	Tmtc1 (Transmembrane O-mannosyltransferase targeting cadherins 1)	DRSC00411	183	148			inactive
17	Pcyt1 (Phosphocholine cytidylyltransferase 1)	DRSC08157	164	142			inactive
18	Obp83g (Odorant-binding protein 83g)	DRSC12269	95.5	125			inactive
19	Not3 (CCR4-NOT transcription complex subunit 3)	DRSC04908	124	89.3			inactive
20	BBS5 (Bardet-Biedl syndrome 5)	DRSC12168	107	132			inactive
21	CG10337	DRSC02038	56	145			inactive
22	CG13376	DRSC17901	94.9	96.8			active
23	svp (seven up)	DRSC15311	62	89.6			active
24	svp (seven up)	DRSC17075	110	74.2	8447	152	inactive
25	bw (brown)	DRSC04005	83.6	80.8			inactive
26	bw (brown)	DRSC04677	156	86			inactive
27	CG13615	DRSC14618	192	141			inactive
28	CG2186	DRSC19838	125	55			active
29	CG31642	DRSC02919	129	268			inactive
30	CG43373	DRSC09869	91.8	192			inactive
31	CG43373	DRSC09885	96.2	195			inactive
32	CG30273	DRSC22059	83.1	220			inactive
33	lov (jim lovell)	DRSC04665	67.6	51.1	90	186	active
34	Alk (Anaplastic lymphoma kinase)	DRSC05918	146	147	112	108	inactive
35	Alk (Anaplastic lymphoma kinase)	DRSC23342	102	128			inactive
36	bora (aurora borealis)	DRSC10744	99.1	124			inactive
37	Mics1 (Mitochondrial morphology and cristae structure 1)	DRSC12537	107	177			inactive
38	JYalpha	DRSC17224	128	140			inactive
39	LysE (Lysozyme E)	DRSC08675	80.4	106			inactive
40	CG4896	DRSC00671	144	300			inactive
41	Cht8 (Chitinase 8)	DRSC04546	42.6	163			inactive
42	Sem1 (Suppressor of exocyst mutations 1)	DRSC02282	64.2	137			active
43	HHEX (Hematopoietically expressed homeobox)	DRSC16186	152	120			inactive
44	Amacr (Alpha-methylacyl-CoA racemase)	DRSC03198	69	98.1			active
45	snoRNA:Me28S-A982b + Uhg4 + snoRNA:Me28S-G3255a + 1 more	DRSC05143	78.5	88.9			inactive
46	para (paralytic)	DRSC19141	96.4	112			inactive
47	para (paralytic)	DRSC20360	105	97.3			inactive
48	insc (inscuteable)	DRSC04695	179	124			inactive
49	sut1 (sugar transporter 1)	DRSC07700	245	114			inactive
50	PolD3 (DNA polymerase delta subunit 3)	DRSC01961	80.2	108			inactive
51	CG10005	DRSC14172	164	77			inactive
52	Ilp6 (Insulin-like peptide 6)	DRSC17906	59.7	98			active
53	CG16879 (retired record)	DRSC01918	128	164	109	130	inactive
54	CG16879 (retired record)	DRSC22849	98	112			inactive
55	miple1 (midkine and pleiotrophin 1)	DRSC08722	98.8	90.1			inactive
56	CG6040	DRSC15954	108	248			inactive

Records above with an active call (10):
gene	amplicon	calcium signal, replicate 1	calcium signal, replicate 2	retest calcium signal, replicate 1	retest calcium signal, replicate 2	call
key (kenny)	DRSC04285	66.3	175			active
hfp (half pint)	DRSC08731	54.4	81.8			active
CG15429	DRSC00444	65.3	101			active
CG13376	DRSC17901	94.9	96.8			active
svp (seven up)	DRSC15311	62	89.6			active
CG2186	DRSC19838	125	55			active
lov (jim lovell)	DRSC04665	67.6	51.1	90	186	active
Sem1 (Suppressor of exocyst mutations 1)	DRSC02282	64.2	137			active
Amacr (Alpha-methylacyl-CoA racemase)	DRSC03198	69	98.1			active
Ilp6 (Insulin-like peptide 6)	DRSC17906	59.7	98			active
